Experimental data as given in paper PMC4484629 (Arthritis Research & Therapy, 2015).

Experiment: general procedure: Fmoc solid-phase peptide synthesis; Tentagel Rink Amide; HBTU/DIPEA; OxymaPure/DIC for Arg/Cit573
Conditions: whole synthesis

## cyclo-CHHP GIA EFP SXG KSS SYS KQF
  crude yield: 46%
